Data from the supplement of paper PMC10849652.
This is one part of the list.

Protein sequences, listed by entry. Tags and fused reporters are not part of them. Lines headed by an entry give the natural chain unless they say otherwise; changes in a name come on top.
UniProt Q02083: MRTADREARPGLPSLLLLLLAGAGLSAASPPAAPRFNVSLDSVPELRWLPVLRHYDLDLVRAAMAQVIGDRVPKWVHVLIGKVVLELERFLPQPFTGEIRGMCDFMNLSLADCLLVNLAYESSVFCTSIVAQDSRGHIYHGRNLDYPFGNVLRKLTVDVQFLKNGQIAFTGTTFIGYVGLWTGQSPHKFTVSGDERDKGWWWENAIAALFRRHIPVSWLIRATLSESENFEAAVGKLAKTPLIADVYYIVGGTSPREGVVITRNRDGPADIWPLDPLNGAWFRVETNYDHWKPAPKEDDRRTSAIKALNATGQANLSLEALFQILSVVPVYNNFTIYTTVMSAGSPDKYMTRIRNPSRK
UniProt P52298: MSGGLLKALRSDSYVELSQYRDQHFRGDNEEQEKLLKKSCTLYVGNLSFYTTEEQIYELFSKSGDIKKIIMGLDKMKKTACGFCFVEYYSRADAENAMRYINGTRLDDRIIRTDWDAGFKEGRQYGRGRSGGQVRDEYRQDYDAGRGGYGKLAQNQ
UniProt Q9BSU3: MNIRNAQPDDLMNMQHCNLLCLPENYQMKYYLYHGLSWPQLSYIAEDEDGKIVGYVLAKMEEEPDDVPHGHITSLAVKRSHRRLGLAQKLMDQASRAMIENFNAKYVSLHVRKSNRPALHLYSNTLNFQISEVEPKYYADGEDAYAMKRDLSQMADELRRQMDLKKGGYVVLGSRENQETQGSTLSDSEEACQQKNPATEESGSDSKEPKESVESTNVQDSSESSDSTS
UniProt Q86XI2: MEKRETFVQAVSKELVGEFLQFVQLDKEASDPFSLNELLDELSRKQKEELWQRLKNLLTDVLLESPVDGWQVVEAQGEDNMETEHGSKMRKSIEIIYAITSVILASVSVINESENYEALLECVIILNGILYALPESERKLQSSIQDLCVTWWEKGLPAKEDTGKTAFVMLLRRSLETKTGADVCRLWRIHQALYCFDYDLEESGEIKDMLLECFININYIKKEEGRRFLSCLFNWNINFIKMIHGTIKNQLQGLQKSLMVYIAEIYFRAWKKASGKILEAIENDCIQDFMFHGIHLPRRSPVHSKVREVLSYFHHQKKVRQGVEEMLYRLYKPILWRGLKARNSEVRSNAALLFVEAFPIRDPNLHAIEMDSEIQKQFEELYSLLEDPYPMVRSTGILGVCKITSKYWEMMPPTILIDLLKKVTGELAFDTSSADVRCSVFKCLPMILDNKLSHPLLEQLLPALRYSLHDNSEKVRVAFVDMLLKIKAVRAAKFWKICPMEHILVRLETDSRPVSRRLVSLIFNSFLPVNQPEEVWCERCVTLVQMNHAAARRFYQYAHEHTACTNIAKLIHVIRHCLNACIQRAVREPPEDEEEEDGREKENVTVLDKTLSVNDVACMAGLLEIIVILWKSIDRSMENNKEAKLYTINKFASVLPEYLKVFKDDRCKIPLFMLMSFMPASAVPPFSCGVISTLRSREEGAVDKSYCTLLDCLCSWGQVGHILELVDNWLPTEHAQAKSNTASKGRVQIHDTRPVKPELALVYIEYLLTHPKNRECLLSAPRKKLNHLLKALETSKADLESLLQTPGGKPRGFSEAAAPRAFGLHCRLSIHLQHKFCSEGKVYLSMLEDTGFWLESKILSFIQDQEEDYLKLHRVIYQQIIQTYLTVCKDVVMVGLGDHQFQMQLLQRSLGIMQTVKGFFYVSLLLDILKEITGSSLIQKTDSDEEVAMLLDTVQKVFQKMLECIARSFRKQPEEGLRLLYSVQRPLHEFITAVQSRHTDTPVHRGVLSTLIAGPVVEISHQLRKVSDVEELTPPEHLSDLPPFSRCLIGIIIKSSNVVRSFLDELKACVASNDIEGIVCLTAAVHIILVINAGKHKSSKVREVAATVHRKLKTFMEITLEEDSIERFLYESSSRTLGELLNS
UniProt Q99417: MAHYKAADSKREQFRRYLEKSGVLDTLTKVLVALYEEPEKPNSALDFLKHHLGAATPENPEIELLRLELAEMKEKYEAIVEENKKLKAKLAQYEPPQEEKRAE
UniProt Q5VZE5: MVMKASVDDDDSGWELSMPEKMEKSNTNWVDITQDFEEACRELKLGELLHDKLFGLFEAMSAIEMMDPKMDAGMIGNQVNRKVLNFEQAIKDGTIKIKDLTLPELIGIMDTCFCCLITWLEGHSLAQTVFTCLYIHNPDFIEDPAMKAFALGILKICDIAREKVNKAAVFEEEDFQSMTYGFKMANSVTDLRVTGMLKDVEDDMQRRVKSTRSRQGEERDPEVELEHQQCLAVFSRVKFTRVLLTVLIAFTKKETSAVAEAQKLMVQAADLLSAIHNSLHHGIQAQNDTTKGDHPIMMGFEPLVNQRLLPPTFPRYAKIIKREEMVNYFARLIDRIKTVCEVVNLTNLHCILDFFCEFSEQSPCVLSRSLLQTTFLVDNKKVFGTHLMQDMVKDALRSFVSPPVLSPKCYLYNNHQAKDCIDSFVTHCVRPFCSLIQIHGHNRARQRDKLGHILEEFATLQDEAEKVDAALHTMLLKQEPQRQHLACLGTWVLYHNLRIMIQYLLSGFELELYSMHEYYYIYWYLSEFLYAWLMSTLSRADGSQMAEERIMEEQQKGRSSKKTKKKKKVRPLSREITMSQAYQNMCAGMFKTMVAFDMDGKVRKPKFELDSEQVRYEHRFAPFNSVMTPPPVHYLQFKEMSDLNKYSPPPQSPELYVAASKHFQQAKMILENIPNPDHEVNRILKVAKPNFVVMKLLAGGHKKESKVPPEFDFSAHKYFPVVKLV
UniProt P55209: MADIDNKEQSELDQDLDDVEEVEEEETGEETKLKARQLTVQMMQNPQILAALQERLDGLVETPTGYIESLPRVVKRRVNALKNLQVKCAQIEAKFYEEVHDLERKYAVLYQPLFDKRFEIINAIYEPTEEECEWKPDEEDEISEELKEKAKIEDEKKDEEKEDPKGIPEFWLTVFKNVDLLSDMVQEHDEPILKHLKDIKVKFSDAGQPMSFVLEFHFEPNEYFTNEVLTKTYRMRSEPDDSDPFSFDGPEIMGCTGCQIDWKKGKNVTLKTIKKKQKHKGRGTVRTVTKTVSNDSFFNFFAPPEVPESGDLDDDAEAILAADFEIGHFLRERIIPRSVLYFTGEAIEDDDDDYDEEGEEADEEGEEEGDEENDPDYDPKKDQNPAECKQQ
UniProt Q96DR8: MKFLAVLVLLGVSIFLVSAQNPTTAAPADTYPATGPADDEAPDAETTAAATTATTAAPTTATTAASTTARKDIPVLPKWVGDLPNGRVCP
UniProt Q6PIU2: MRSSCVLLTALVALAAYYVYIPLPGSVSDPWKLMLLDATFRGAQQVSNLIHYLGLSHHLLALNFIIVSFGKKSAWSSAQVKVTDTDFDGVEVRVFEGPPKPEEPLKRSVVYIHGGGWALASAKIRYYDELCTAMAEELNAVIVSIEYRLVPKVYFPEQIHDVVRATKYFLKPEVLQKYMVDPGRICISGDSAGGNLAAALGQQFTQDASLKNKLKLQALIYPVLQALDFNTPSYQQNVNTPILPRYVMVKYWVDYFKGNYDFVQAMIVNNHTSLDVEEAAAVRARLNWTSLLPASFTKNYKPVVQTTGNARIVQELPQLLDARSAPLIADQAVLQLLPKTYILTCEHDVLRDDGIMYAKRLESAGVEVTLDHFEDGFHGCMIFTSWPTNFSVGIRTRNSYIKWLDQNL
UniProt P60660, whole entry, looked up: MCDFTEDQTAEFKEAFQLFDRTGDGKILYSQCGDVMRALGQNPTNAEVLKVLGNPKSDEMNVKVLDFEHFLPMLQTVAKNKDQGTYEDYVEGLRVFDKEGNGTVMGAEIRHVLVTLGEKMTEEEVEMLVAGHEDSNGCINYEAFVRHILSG
UniProt Q6ZNJ1: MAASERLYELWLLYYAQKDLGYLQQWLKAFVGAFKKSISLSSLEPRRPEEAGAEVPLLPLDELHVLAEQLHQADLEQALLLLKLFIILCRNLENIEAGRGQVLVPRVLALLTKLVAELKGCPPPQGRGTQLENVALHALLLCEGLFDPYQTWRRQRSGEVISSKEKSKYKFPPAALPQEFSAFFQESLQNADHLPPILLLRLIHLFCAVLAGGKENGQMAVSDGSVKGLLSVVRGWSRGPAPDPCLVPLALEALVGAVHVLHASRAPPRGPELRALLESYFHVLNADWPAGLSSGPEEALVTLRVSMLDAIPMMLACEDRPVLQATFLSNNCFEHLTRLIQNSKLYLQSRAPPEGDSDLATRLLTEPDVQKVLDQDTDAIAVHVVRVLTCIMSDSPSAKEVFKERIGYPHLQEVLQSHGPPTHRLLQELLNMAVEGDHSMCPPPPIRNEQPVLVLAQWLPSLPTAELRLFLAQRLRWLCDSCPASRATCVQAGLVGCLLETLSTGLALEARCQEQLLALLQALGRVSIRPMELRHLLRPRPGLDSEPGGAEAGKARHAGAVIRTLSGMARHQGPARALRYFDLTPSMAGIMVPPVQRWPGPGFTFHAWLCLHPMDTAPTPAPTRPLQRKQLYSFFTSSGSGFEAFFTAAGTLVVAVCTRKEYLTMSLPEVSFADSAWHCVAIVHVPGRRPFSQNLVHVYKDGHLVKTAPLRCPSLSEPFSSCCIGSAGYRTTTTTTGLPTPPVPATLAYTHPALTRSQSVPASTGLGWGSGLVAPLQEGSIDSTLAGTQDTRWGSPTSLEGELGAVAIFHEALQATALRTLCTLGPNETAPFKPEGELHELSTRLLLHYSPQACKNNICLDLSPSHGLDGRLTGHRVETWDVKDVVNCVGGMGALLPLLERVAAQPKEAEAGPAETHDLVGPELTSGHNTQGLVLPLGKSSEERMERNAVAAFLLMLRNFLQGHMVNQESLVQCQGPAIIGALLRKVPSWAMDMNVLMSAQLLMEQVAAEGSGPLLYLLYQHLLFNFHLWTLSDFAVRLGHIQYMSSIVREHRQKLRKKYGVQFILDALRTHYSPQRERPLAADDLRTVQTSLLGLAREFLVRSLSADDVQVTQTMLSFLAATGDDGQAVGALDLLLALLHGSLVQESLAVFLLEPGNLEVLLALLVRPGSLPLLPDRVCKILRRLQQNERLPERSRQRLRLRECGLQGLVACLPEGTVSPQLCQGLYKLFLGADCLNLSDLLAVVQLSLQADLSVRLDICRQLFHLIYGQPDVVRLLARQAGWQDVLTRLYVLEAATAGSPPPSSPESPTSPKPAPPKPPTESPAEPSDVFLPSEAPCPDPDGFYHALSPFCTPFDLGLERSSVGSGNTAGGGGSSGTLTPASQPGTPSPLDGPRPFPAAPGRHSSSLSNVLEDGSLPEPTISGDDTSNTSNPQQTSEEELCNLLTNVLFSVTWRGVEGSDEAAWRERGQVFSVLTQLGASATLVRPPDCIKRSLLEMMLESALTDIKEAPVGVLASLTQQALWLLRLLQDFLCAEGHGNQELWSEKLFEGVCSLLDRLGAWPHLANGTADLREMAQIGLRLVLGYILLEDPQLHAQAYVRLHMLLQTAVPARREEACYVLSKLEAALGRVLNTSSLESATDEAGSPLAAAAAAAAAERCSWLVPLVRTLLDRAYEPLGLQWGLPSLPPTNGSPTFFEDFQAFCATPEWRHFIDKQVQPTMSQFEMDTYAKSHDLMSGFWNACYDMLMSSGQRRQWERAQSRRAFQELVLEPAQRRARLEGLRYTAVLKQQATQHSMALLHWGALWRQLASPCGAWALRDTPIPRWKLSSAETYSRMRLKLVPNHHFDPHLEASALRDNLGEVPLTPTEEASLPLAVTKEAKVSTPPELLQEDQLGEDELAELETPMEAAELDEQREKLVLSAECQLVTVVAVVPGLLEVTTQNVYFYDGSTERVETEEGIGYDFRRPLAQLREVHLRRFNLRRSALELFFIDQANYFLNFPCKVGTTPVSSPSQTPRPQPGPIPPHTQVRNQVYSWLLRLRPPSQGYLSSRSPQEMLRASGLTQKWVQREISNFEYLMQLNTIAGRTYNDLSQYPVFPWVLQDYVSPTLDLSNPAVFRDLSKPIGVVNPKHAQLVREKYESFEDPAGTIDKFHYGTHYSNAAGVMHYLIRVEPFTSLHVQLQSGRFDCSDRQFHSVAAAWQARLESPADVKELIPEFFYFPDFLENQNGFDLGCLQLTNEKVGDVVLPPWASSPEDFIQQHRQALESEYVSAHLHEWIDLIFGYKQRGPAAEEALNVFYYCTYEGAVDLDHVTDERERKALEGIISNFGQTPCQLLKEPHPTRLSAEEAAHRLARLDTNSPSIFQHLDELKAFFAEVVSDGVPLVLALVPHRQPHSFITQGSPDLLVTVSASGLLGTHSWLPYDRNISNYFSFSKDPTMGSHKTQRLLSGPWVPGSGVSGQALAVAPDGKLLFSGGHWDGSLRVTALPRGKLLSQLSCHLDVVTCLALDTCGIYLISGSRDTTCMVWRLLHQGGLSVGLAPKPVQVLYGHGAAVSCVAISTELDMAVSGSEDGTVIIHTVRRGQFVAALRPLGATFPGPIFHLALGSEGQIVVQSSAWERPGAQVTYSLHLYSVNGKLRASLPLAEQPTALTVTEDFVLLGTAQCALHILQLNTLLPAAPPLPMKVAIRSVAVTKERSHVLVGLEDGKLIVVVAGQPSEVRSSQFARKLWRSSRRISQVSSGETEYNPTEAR

Experiments:
Assay in all cases: log2 fold change, soluble protein after heating vs DMSO (PISA); higher = thermal stabilisation; K562 lysate, 10 uM; active = over 0.2 and 3.5 SD of the protein, either way, in both replicates (recomputed)
alvocidib = compound: CN1CC[C@H](c2c(O)cc(O)c3c(=O)cc(-c4ccccc4Cl)oc23)[C@H](O)C1 [alvocidib]
Method in brief: (§1)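 Values give the log-two fold change in thermal stability against solvent controls, from duplicates. Crude K562 extract at 1 mg/mL protein, made by dounce homogenisation in PBS pH 7.4 with 1 mM MgCl2, was treated with 10 μM compound for 30 min. After 3 min heating across 48°C-58°C, aliquots were pooled, adjusted to 0.5% NP-40 at 4°C and centrifuged at 21,000xg for 90 min. The supernatant was measured by TMTpro 16plex LC-MS/MS with channel sums equalised.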

Tubastatin A = compound: CN1CCc2c(c3ccccc3n2Cc2ccc(C(=O)NO)cc2)C1 [Tubastatin A]
Method in brief: as §1

[1] = compound: CNC(=O)C1=CC=CC=C1NC2=NC(=NC=C2Cl)NC3=C(C=C(C=C3)N4CCOCC4)OC
Method in brief: as §1

defactinib = compound: CNC(=O)c1ccc(Nc2ncc(C(F)(F)F)c(NCc3nccnc3N(C)S(C)(=O)=O)n2)cc1 [defactinib]
Method in brief: as §1

[2] = compound: CNc1nc(-c2ccc3c(N)n[nH]c3c2)cc(N2C[C@@H](C(=O)NC3CCCCC3)CC[C@H]2C)n1
Method in brief: as §1

encorafenib = compound: COC(=O)N[C@@H](C)CNc1nccc(-c2cn(C(C)C)nc2-c2cc(Cl)cc(NS(C)(=O)=O)c2F)n1 [encorafenib]
Method in brief: as §1

[3] = compound: COC(=O)[C@H](CCSC)NC(=O)C1=C(C=C(C=C1)NC[C@H](CS)N)C2=CC=CC=C2
Method in brief: as §1

alisertib = compound: COc1cc(Nc2ncc3c(n2)-c2ccc(Cl)cc2C(c2c(F)cccc2OC)=NC3)ccc1C(=O)O [alisertib]
Method in brief: as §1

[4] = compound: COc1cc2nc(-c3cc(F)ccc3O)nc(N[C@@H]3CNC[C@H]3C(C)(C)O)c2cc1OC
Method in brief: as §1

gefitinib = compound: COc1cc2ncnc(Nc3ccc(F)c(Cl)c3)c2cc1OCCCN1CCOCC1 [gefitinib]
Method in brief: as §1

lapatinib = compound: CS(=O)(=O)CCNCc1ccc(-c2ccc3ncnc(Nc4ccc(OCc5cccc(F)c5)c(Cl)c4)c3c2)o1 [lapatinib]
Method in brief: as §1

pictilisib = compound: CS(=O)(=O)N1CCN(Cc2cc3nc(-c4cccc5[nH]ncc45)nc(N4CCOCC4)c3s2)CC1 [pictilisib]
Method in brief: as §1

crizotinib = compound: C[C@@H](Oc1cc(-c2cnn(C3CCNCC3)c2)cnc1N)c1c(Cl)ccc(F)c1Cl [crizotinib]
Method in brief: as §1

[5] = compound: C[C@H](C1=CC=C(C=C1)C(=O)NC2=C3C=CNC3=NC=C2)N
Method in brief: as §1

duvelisib = compound: C[C@H](Nc1ncnc2nc[nH]c12)c1cc2cccc(Cl)c2c(=O)n1-c1ccccc1 [duvelisib]
Method in brief: as §1

gandotinib = compound: Cc1cc(Nc2cc(CN3CCOCC3)c3nc(C)c(Cc4ccc(Cl)cc4F)n3n2)n[nH]1 [gandotinib]
Method in brief: as §1

tozasertib = compound: Cc1cc(Nc2cc(N3CCN(C)CC3)nc(Sc3ccc(NC(=O)C4CC4)cc3)n2)n[nH]1 [tozasertib]
Method in brief: as §1

doramapimod = compound: Cc1ccc(-n2nc(C(C)(C)C)cc2NC(=O)Nc2ccc(OCCN3CCOCC3)c3ccccc23)cc1 [doramapimod]
Method in brief: as §1

bafetinib = compound: Cc1ccc(NC(=O)c2ccc(CN3CC[C@H](N(C)C)C3)c(C(F)(F)F)c2)cc1Nc1nccc(-c2cncnc2)n1 [bafetinib]
Method in brief: as §1

[6] = compound: Cc1cccc(CC(=O)N2CCc3c2ccc(-c2cn(C)c4ncnc(N)c24)c3F)n1
Method in brief: as §1

Measured: log2 fold change

NAAA (UniProt Q02083)
inactive: alvocidib -0.003 | Tubastatin A 0.062 | [1] -0.019 | defactinib 0.033 | [2] 0.044 | encorafenib 0.002 | [3] 0.053 | alisertib 0.029 | [4] -0.104 | gefitinib -0.044 | lapatinib 0.021 | pictilisib -0.108 | crizotinib 0.043 | [5] 0.056 | duvelisib 0.018 | gandotinib -0.021 | tozasertib 0.202 | doramapimod -0.069 | bafetinib -0.027 | [6] -0.107

NCOA7 (UniProt Q8NI08)
inactive: alvocidib -0.012 | Tubastatin A -0.051 | [1] 0.049 | defactinib -0.022 | [2] 0.066 | encorafenib -0.003 | [3] 0.001 | alisertib 0.008 | [4] -0.004 | gefitinib 0.006 | lapatinib 0.009 | pictilisib -0.001 | crizotinib -0.028 | [5] 0.015 | duvelisib -0.006 | gandotinib -0.015 | tozasertib 0.024 | doramapimod 0.005 | bafetinib -0.04 | [6] 0.036

NCBP2 (UniProt P52298)
inactive: alvocidib 0.007 | Tubastatin A -0.005 | [1] -0.085 | defactinib -0.043 | [2] -0.077 | encorafenib -0.014 | [3] -0.059 | alisertib 0.001 | [4] 0.014 | gefitinib 0.001 | lapatinib 0.018 | pictilisib -0.004 | crizotinib 0.079 | [5] -0.007 | duvelisib 0.007 | gandotinib -0.063 | tozasertib 0.024 | doramapimod -0.008 | bafetinib -0.008 | [6] 0

NAA11 (UniProt Q9BSU3)
inactive: alvocidib -0.03 | Tubastatin A -0.059 | [1] 0.061 | defactinib 0.026 | [2] 0.191 | encorafenib 0.003 | [3] -0.007 | alisertib 0.037 | [4] -0.025 | gefitinib -0.028 | lapatinib 0.009 | pictilisib 0.048 | crizotinib 0.017 | [5] 0.022 | duvelisib -0.058 | gandotinib 0 | tozasertib 0.001 | doramapimod -0.078 | bafetinib 0.099 | [6] -0.059

NCOR2 (UniProt C9J0Q5)
inactive: alvocidib 0.024 | Tubastatin A -0.035 | [1] -0.013 | defactinib 0.045 | [2] -0.001 | encorafenib -0.002 | [3] 0.006 | alisertib 0.036 | [4] 0.017 | gefitinib 0.049 | lapatinib 0.063 | pictilisib -0.028 | crizotinib 0.116 | [5] 0.018 | duvelisib -0.014 | gandotinib -0.055 | tozasertib 0.011 | doramapimod -0.052 | bafetinib 0.079 | [6] -0.07

NCSTN (UniProt Q92542)
inactive: alvocidib -0.115 | Tubastatin A 0.059 | [1] 0.009 | defactinib -0.009 | [2] 0.098 | encorafenib 0.05 | [3] -0.043 | alisertib 0.011 | [4] -0.02 | gefitinib -0.018 | lapatinib 0.002 | pictilisib -0.019 | crizotinib -0.041 | [5] -0.216 | duvelisib -0.014 | gandotinib 0.099 | tozasertib -0.025 | doramapimod 0.021 | bafetinib -0.082 | [6] 0.144

NCAPG2 (UniProt Q86XI2)
inactive: alvocidib -0.014 | Tubastatin A -0.217 | [1] -0.008 | defactinib 0.023 | [2] 0.04 | encorafenib 0.002 | [3] -0.018 | alisertib 0.004 | [4] -0.01 | gefitinib 0.038 | lapatinib -0.062 | pictilisib -0.006 | crizotinib -0.048 | [5] -0.108 | duvelisib -0.052 | gandotinib -0.011 | tozasertib 0.023 | doramapimod 0.062 | bafetinib -0.074 | [6] 0.143

NCK1 (UniProt P16333)
inactive: alvocidib 0 | Tubastatin A -0.097 | [1] 0.023 | defactinib -0.02 | [2] -0.008 | encorafenib 0.008 | [3] -0.068 | alisertib -0.003 | [4] -0.007 | gefitinib 0.026 | lapatinib 0.025 | pictilisib 0 | crizotinib -0.024 | [5] 0.065 | duvelisib 0.014 | gandotinib -0.051 | tozasertib 0.005 | doramapimod 0.03 | bafetinib -0.033 | [6] -0.024

MYCBP (UniProt Q99417)
active: [5] -0.498
inactive: alvocidib -0.244 | Tubastatin A 0.045 | [1] -0.02 | defactinib 0.022 | [2] -0.031 | encorafenib 0.005 | [3] -0.069 | alisertib 0.022 | [4] -0.001 | gefitinib -0.029 | lapatinib 0.01 | pictilisib -0.052 | crizotinib 0.003 | duvelisib 0.02 | gandotinib 0.105 | tozasertib 0.028 | doramapimod 0.008 | bafetinib -0.018 | [6] 0.182

NAA35 (UniProt Q5VZE5)
inactive: alvocidib 0.018 | Tubastatin A -0.056 | [1] -0.007 | defactinib 0.034 | [2] 0 | encorafenib 0.01 | [3] -0.001 | alisertib -0.026 | [4] -0.006 | gefitinib -0.008 | lapatinib 0.009 | pictilisib 0.032 | crizotinib -0.031 | [5] 0.082 | duvelisib -0.007 | gandotinib -0.042 | tozasertib -0.003 | doramapimod 0.031 | bafetinib -0.057 | [6] -0.022

NANS (UniProt Q9NR45)
inactive: alvocidib -0.008 | Tubastatin A -0.024 | [1] -0.009 | defactinib -0.011 | [2] -0.037 | encorafenib 0.004 | [3] -0.03 | alisertib 0.032 | [4] 0 | gefitinib -0.024 | lapatinib -0.004 | pictilisib 0.008 | crizotinib 0.044 | [5] -0.051 | duvelisib 0.002 | gandotinib 0.002 | tozasertib 0.01 | doramapimod -0.017 | bafetinib 0.01 | [6] 0.003

Two neighbouring records already listed, for reference:
NCK1 (UniProt P16333)
inactive: alvocidib 0 | Tubastatin A -0.097 | [1] 0.023 | defactinib -0.02 | [2] -0.008 | encorafenib 0.008 | [3] -0.068 | alisertib -0.003 | [4] -0.007 | gefitinib 0.026 | lapatinib 0.025 | pictilisib 0 | crizotinib -0.024 | [5] 0.065 | duvelisib 0.014 | gandotinib -0.051 | tozasertib 0.005 | doramapimod 0.03 | bafetinib -0.033 | [6] -0.024

MYCBP (UniProt Q99417)
active: [5] -0.498
inactive: alvocidib -0.244 | Tubastatin A 0.045 | [1] -0.02 | defactinib 0.022 | [2] -0.031 | encorafenib 0.005 | [3] -0.069 | alisertib 0.022 | [4] -0.001 | gefitinib -0.029 | lapatinib 0.01 | pictilisib -0.052 | crizotinib 0.003 | duvelisib 0.02 | gandotinib 0.105 | tozasertib 0.028 | doramapimod 0.008 | bafetinib -0.018 | [6] 0.182

Next records.

NAP1L1 isoform 3 (UniProt P55209)
inactive: alvocidib -0.203 | Tubastatin A 0.166 | [1] 0.072 | defactinib -0.155 | [2] 0.065 | encorafenib -0.115 | [3] 0.067 | alisertib 0.016 | [4] -0.061 | gefitinib 0.125 | lapatinib 0.052 | pictilisib -0.007 | crizotinib -0.158 | [5] -0.53 | duvelisib 0.073 | gandotinib 0.198 | tozasertib 0.061 | doramapimod 0.094 | bafetinib -0.244 | [6] 0.147

MUCL1 (UniProt Q96DR8)
inactive: alvocidib 0.231 | Tubastatin A 0.25 | [1] -0.273 | defactinib 0.36 | [2] -0.682 | encorafenib -0.43 | [3] 0.555 | alisertib -0.02 | [4] -0.121 | gefitinib 0.266 | lapatinib 0.389 | pictilisib 0.412 | crizotinib 0.394 | [5] 0.457 | duvelisib -0.836 | gandotinib -0.381 | tozasertib 0.739 | doramapimod 0.199 | bafetinib -0.11 | [6] -0.351

NCEH1 (UniProt Q6PIU2)
inactive: alvocidib -0.027 | Tubastatin A 0.007 | [1] 0.017 | defactinib 0.016 | [2] -0.035 | encorafenib 0.047 | [3] -0.036 | alisertib -0.077 | [4] 0 | gefitinib 0.016 | lapatinib -0.011 | pictilisib 0.003 | crizotinib 0 | [5] 0.028 | duvelisib 0.011 | gandotinib 0.028 | tozasertib 0.005 | doramapimod -0.045 | bafetinib -0.053 | [6] -0.033

MYL6 (UniProt P60660)
inactive: alvocidib 0.055 | Tubastatin A 0.022 | [1] -0.019 | defactinib 0.013 | [2] -0.015 | encorafenib -0.012 | [3] -0.056 | alisertib 0.043 | [4] -0.031 | gefitinib -0.034 | lapatinib 0.042 | pictilisib 0.002 | crizotinib 0.033 | [5] 0.036 | duvelisib 0.004 | gandotinib 0.025 | tozasertib 0.02 | doramapimod -0.03 | bafetinib 0.015 | [6] -0.01

NBEAL2 (UniProt Q6ZNJ1)
inactive: alvocidib 0.031 | Tubastatin A -0.141 | [1] -0.005 | defactinib 0.022 | [2] 0.033 | encorafenib 0.003 | [3] -0.029 | alisertib -0.053 | [4] -0.009 | gefitinib 0.01 | lapatinib -0.065 | pictilisib -0.016 | crizotinib -0.069 | [5] -0.006 | duvelisib 0.04 | gandotinib -0.157 | tozasertib 0.02 | doramapimod 0.008 | bafetinib -0.056 | [6] 0.072
